{
  "source": "patent US9078811B2",
  "about": "“Methods of increasing oral bioavailability of tetracyclines” (Paratek Pharmaceuticals, Inc., priority 2006, dated 2015)",
  "assay": "PK following intravenous administration in rats",
  "assay_type": "in vivo",
  "conditions": "IV 1 mg/kg, portal vein, fasted",
  "protocol": "The bioavailability of 9-[(2,2, dimethyl-propyl amino)-methyl]-minocycline following intravenous administration in rats was studied. The freebase (“FB”) and the HCl salt (“HCl salt”) of 9-[(2,2, dimethyl-propyl amino)-methyl]-minocycline were used. All formulations were prepared fresh on the day of the experiment. Samples for pharmacokinetic analysis were collected from a cannula within the carotid artery of the rats. Intravenous doses of (1 mg/kg) were administered to rats through cannulas in either the jugular or portal veins.",
  "note": "Structures can show the parent of a compound that is named as a salt. At least one structure is not confirmed: it was looked up by name or label, or the drawing left a doubt.",
  "data": [
    {"compound": "CN(C)c1cc(CNCC(C)(C)C)c(O)c2c1C[C@H]1C[C@H]3[C@H](N(C)C)C(O)=C(C(N)=O)C(=O)[C@@]3(O)C(O)=C1C2=O", "note": "[HCl salt, 9-[(2,2, dimethyl-propylamino)-methyl]-minocycline]", "values": [
      {"measurement": "AUC", "value": "0.59 (0.52: 0.66) ug*hr/mL"}
    ]}
  ]
}
